Measured data: PubChem BioAssay AID720505 (Drosophila RNAi Screening Center, 2013)
The screen tested about 20,000 reagents; this is a random part of those that have a named target and a result. In the full data, about 2,100 (10%) are marked active. 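Raw plate signals without normalisation; calls rest on control-based scores that were not deposited; replicate 2 separates called from uncalled poorly.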 Reagents against one gene are numbered here. Names joined by + are all predicted targets of the reagent. No sequences are given here. Not stated in the record: the amount of reagent, the time to read-out.

- Purpose: 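Genes needed for store-operated calcium entry in fly cells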 (primary screen)
- Cell system: Drosophila S2R+ cells
- Reagents: long dsRNA against Drosophila genes
- Conditions: thapsigargin (2 µM) in calcium-free buffer to empty internal stores, then 2 mM calcium added back
- Measurement: 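Stores emptied by 2 µM thapsigargin without calcium, then 2 mM calcium re-added; fluo-4 fluorescence followed by FLIPR in 384-well plates, per-well averaged endpoint, raw; two screen passes, some wells retested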
- Direction: calcium signal and retest calcium signal: higher = more calcium entry after store depletion
- Hit rule: 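About 1500 genes called as lowering calcium entry, by varying amounts, judged against per-plate control wells with STIM1 as positive and Rho1 as negative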
- Meaning of the calls: active = called as lowering calcium entry; inactive = not called

no.	Target gene	reagent	calcium signal, replicate 1	calcium signal, replicate 2	retest calcium signal, replicate 1	retest calcium signal, replicate 2	Outcome
1	fd102C (forkhead domain 102C)	1	89.4	113			inactive
2	Rh6 (Rhodopsin 6)	1	123	112			inactive
3	CG2063	1	116	110			inactive
4	Cdep (Chondrocyte-derived ezrin-like domain containing protein)	1					inactive
5	Cdep (Chondrocyte-derived ezrin-like domain containing protein)	2	108	109			inactive
6	Cdep (Chondrocyte-derived ezrin-like domain containing protein)	3	111	110			inactive
7	Sod2 (Superoxide dismutase 2 (Mn))	1	136	96.6			inactive
8	elB (elbow B)	1	113	110			inactive
9	CG5861	1	64.2	80.5			active
10	CG4404	1	101	88.6			inactive
11	CG11638	1	140	144			inactive
12	CG11638	2	122	177			inactive
13	CG12620	1	119	98.6			inactive
14	CG14125	1	141	119			inactive
15	CG44774	1	69.3	192			active
16	betaTub65B (beta-Tubulin at 65B)	1	82.9	65.9			inactive
17	CG6770	1	92.7	98.2	84.4	107	inactive
18	CG11426	1	72.7	152			inactive
19	Drsl6 (Drosomycin-like 6)	1	60.8	93.7			inactive
20	Kaz-m1 (Kazal-type protease inhibitor m1)	1	210	123			inactive
21	atilla	1	98.9	161			inactive
22	sut4 (sugar transporter 4)	1	180	177			inactive
23	Polr3F (RNA polymerase III subunit F)	1	174	192			inactive
24	CG6220	1	129	218			inactive
25	CG15269	1	113	141			inactive
26	MCPH1 (Microcephalin)	1	154	157			inactive
27	MCPH1 (Microcephalin)	2	41.8	142			active
28	MCPH1 (Microcephalin)	3	124	135			inactive
29	SecS (Sec synthetase)	1	121	230			inactive
30	CG11474	1	93.7	123			inactive
31	nesd (nessun dorma)	1	116	106			inactive
32	mew (multiple edematous wings)	1					inactive
33	mew (multiple edematous wings)	2	123	96.9			inactive
34	Csp (Cysteine string protein)	1	103	112			inactive
35	CG10465	1	95.9	163			inactive
36	CG4161	1	154	84.3			inactive
37	CG30350	1	62.3	99.9			active
38	CG10931	1	178	172			inactive
39	CG32485	1	117	120			inactive
40	ZnT86D (Zinc transporter 86D)	1	124	106			inactive
41	ORMDL (Orosomucoid 1-like)	1	94.1	199			inactive
42	Grl36a (Gustatory receptor-like 36a)	1	114	105			inactive
43	Vps16B (Vacuolar protein sorting 16B)	1	166	191			inactive
44	loqs (loquacious)	1	122	84.9			inactive
45	CG6023	1	182	152			inactive
46	CG13377	1	110	131			inactive
47	yellow-e3	1	133	194			inactive
48	SCCRO (Squamous cell carcinoma-related oncogene)	1	55.8	64.2			active
49	Ufd1 (Ubiquitin fusion-degradation 1-like)	1	133	162			inactive
50	CG17287	1	165	111			inactive
51	CG1146	1	144	94.3			inactive

Looked up above.
For “calcium signal, replicate 1”, Vps16B (Vacuolar protein sorting 16B) shows 166
Under “calcium signal, replicate 1”, yellow-e3 reads 133
CG5861, calcium signal, replicate 2 = 80.5
Entry for betaTub65B (beta-Tubulin at 65B) in “calcium signal, replicate 1”: 82.9
Under “calcium signal, replicate 1”, CG17287 is entered as 165
Under “calcium signal, replicate 1”, Cdep (Chondrocyte-derived ezrin-like domain containing protein) #3 is entered as 111

Additional entries:
no.	Target gene	reagent	calcium signal, replicate 1	calcium signal, replicate 2	retest calcium signal, replicate 1	retest calcium signal, replicate 2	Outcome
52	CG43052	1	104	96.7			inactive
53	CG9686	1	131	95.7			inactive
54	Skel (Skeletor)	1	168	96.1			inactive
55	Skel (Skeletor)	2	97.3	136			inactive
56	CG3713	1	81.8	193			inactive
57	CG10019	1	165	98.2			inactive
58	veli	1	194	139			inactive
59	Gycalpha99B (Guanylyl cyclase alpha-subunit at 99B)	1	66.2	149			active
60	TORIP (Torsin interacting protein)	1	90.6	113			inactive
61	CR31292 (pseudo)	1					inactive
62	CG14301	1	188	178			inactive
63	Su(dx) (Suppressor of deltex)	1	144	284			inactive
64	His2B:CG33894 + His2B:CG33872 + His2B:CG33902 + 20 more	1	34.8	53.4			active
65	CG17121	1	202	123			inactive
66	Obp19a (Odorant-binding protein 19a)	1	101	110			inactive
67	DIP2 (DISCO Interacting Protein 2)	1	72.8	113			active
68	RalGPS (Ral GEF with PH domain and SH3 binding motif)	1	111	120			inactive
69	CG8531	1	196	144			inactive
70	CG13460	1	104	206			inactive
71	CG31678	1	99	98.3			inactive
72	CG31678	2	71.2	145			inactive
73	Zip89B (Zinc/iron regulated transporter-related protein 89B)	1	158	183			inactive
74	TER94 (Transitional endoplasmic reticulum 94)	1	114	145			inactive
75	Pld3 (Phospholipase D family member 3)	1	91.8	78			inactive
76	ldbr (lariat debranching enzyme)	1	91	112			inactive
77	PGRP-SC1b (Peptidoglycan recognition protein SC1b)	1	208	213			inactive
78	Lrp4 (LDL receptor related protein 4)	1	200	131			inactive
79	ZIPIC (Zinc-finger protein interacting with CP190)	1	126	151			inactive
80	CG12817 + CG12420	1	110	80.3			inactive
81	Nf-YC (Nuclear factor Y-box C)	1	191	135			inactive
82	Nf-YC (Nuclear factor Y-box C)	2	164	161			inactive
83	l(3)07882 (lethal (3) 07882)	1	159	193			inactive
